Results from one PubChem assay

The results are deposited in PubChem (AID971; NCATS, 2007).

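Human lymphoblastoid line LYMP2-015, cultured 24 h with compound; viability judged by ATP-driven luciferase light, giving a fitted cell-killing AC50.
Compounds were run as a dilution series from 0.59 nM up to 92 µM.
The number is the fitted AC50 for the fall in viability; a lower value means stronger, more potent cytotoxicity.
Calls come from the dose-curve class and the fitted log AC50: activity scores of 40–100 are active, 1–39 inconclusive, and 0 inactive.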

Values are in µM.
Every entry below has the call inconclusive.
Only part of the assay is shown, chiefly results filed as inconclusive.
A potency from a partial, single-point or poor curve is only a rough figure.
Some entries filed as inconclusive have a full curve.
Activity scores are not listed here.
An entry listed twice with the same setting is a separate test.

With COP(=O)(OC)OC=C(Cl)Cl the assay gave Potency 15.85 µM (cytotoxic, partial curve). With C[C@H]1O[C@@H](O[C@H]2[C@@H](O)C[C@H](O[C@H]3[C@@H](O)C[C@H](O[C@H]4CC[C@@]5(C)[C@H](CC[C@@H]6[C@@H]5C[C@@H](O)[C@]5(C)[C@@H](C7=CC(=O)OC7)CC[C@]65O)C4)O[C@@H]3C)O[C@@H]2C)C[C@H](O)[C@@H]1O the assay gave Potency 0.1585 µM (cytotoxic, full curve). Result for COc1cccc2c1C(=O)c1c(O)c3c(c(O)c1C2=O)C[C@@](O)(C(C)=O)C[C@@H]3O[C@H]1C[C@H](N)[C@H](O)[C@H](C)O1 was Potency 1 µM (cytotoxic, full curve, poor fit). COc1ccc2[nH]cc(CCNC(C)=O)c2c1 gave Potency 50.12 µM (cytotoxic, partial curve, poor fit). For c1ccc(N=Nc2ccccc2)cc1 the result was Potency 39.81 µM (cytotoxic, partial curve, poor fit). With O.O.O.O.O.O.O.O=S(=O)([O-])[O-].[Co+2] the assay gave Potency 19.95 µM (cytotoxic, partial curve, poor fit). Result for COc1cc2c(c(OC)c1OC)-c1ccc(OC)c(=O)cc1[C@@H](NC(C)=O)CC2 was Potency 0.0501 µM (cytotoxic, full curve). Result for O=[N+]([O-])c1ccc(CCO)cc1 was Potency 39.81 µM (cytotoxic, full curve, poor fit).

CC(=O)Oc1ccccc1C(=O)O read Potency 0.0251 µM (cytotoxic, full curve, poor fit). O=C1OC2(c3cc(Br)c(O)c(Br)c3Oc3c2cc(Br)c(O)c3Br)c2c(Cl)c(Cl)c(Cl)c(Cl)c21 read Potency 31.62 µM (cytotoxic, partial curve, poor fit). With CC(=O)[C@H]1CC[C@H]2[C@@H]3CCC4=CC(=O)CC[C@]4(C)[C@H]3CC[C@]12C the assay gave Potency 63.1 µM (cytotoxic, partial curve, poor fit). c1cnc2c(c1)ccc1cccnc12 read Potency 12.59 µM (cytotoxic, full curve). For CN(C)c1ccc(N=Nc2ccccc2)cc1 the result was Potency 12.59 µM (cytotoxic, partial curve, poor fit). Cn1cnc([N+](=O)[O-])c1Sc1ncnc2nc[nH]c12 gave Potency 50.12 µM (cytotoxic, partial curve, poor fit). Result for O=C(O)CCCc1ccc(N(CCCl)CCCl)cc1 was Potency 39.81 µM (cytotoxic, partial curve, poor fit). Result for Cc1ccc(N)c(N)c1 was Potency 19.95 µM (cytotoxic, partial curve).

For COc1ccc2cc3[n+](cc2c1OC)CCc1cc2c(cc1-3)OCO2 the result was Potency 50.12 µM (cytotoxic, partial curve). For O=CC(=O)c1ccccc1 the result was Potency 50.12 µM (cytotoxic, partial curve, poor fit). CC/C(=C(\c1ccccc1)c1ccc(OCCN(C)C)cc1)c1ccccc1 read Potency 50.12 µM (cytotoxic, partial curve, poor fit). With Oc1c(Cl)cc(Cl)c(Cl)c1Cc1c(O)c(Cl)cc(Cl)c1Cl the assay gave Potency 39.81 µM (cytotoxic, partial curve). COc1cc2c(c(OC)c1OC)-c1ccc(OC)c(=O)cc1[C@@H](NC(C)=O)CC2 read Potency 0.0316 µM (cytotoxic, full curve). Cc1c2oc3c(C)ccc(C(=O)N[C@@H]4C(=O)N[C@H](C(C)C)C(=O)N5CCC[C@H]5C(=O)N(C)CC(=O)N(C)[C@@H](C(C)C)C(=O)O[C@@H]4C)c3nc-2c(C(=O)N[C@@H]2C(=O)N[C@H](C(C)C)C(=O)N3CCC[C@H]3C(=O)N(C)CC(=O)N(C)[C@@H](C(C)C)C(=O)O[C@@H]2C)c(N)c1=O read Potency 0.0025 µM (cytotoxic, full curve, poor fit).

The last 2 entries again:

compound,Potency (µM),curve
COc1cc2c(c(OC)c1OC)-c1ccc(OC)c(=O)cc1[C@@H](NC(C)=O)CC2,0.0316,"cytotoxic, full curve"
Cc1c2oc3c(C)ccc(C(=O)N[C@@H]4C(=O)N[C@H](C(C)C)C(=O)N5CCC[C@H]5C(=O)N(C)CC(=O)N(C)[C@@H](C(C)C)C(=O)O[C@@H]4C)c3nc-2c(C(=O)N[C@@H]2C(=O)N[C@H](C(C)C)C(=O)N3CCC[C@H]3C(=O)N(C)CC(=O)N(C)[C@@H](C(C)C)C(=O)O[C@@H]2C)c(N)c1=O,0.0025,"cytotoxic, full curve, poor fit"